# Screening data, single-dose tests

Chains of the proteins cited; added tags and fusions are not shown. Residues count along the entry.
UniProt Q4DA54, 1-478: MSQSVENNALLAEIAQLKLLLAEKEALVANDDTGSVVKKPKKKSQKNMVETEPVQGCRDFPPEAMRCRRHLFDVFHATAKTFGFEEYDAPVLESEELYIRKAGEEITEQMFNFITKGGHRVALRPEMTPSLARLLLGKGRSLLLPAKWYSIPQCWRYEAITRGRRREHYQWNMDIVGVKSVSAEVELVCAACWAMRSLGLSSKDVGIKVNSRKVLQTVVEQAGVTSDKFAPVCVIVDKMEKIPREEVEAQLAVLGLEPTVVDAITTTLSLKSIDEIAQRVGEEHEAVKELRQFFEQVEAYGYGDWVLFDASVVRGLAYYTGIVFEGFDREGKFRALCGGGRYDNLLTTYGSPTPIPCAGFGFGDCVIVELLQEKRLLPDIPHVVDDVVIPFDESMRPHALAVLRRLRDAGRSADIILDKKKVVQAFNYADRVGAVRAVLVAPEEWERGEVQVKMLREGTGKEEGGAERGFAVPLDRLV
UniProt Q8IDJ8, 1-583: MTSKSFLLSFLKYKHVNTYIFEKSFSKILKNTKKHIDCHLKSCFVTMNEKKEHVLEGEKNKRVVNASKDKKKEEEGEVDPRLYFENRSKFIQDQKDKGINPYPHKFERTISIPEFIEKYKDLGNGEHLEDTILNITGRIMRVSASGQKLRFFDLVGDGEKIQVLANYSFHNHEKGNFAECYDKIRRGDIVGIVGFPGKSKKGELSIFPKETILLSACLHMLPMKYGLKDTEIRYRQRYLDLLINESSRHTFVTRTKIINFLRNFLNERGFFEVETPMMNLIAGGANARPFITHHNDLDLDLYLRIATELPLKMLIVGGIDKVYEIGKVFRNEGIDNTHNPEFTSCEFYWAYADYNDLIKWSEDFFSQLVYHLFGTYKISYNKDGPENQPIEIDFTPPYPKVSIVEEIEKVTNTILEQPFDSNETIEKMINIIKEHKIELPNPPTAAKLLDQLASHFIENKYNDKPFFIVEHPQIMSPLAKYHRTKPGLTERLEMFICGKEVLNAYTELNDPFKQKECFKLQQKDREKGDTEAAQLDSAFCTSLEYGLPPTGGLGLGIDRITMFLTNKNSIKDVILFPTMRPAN

The values are deposited in ChEMBL (CHEMBL3988442, “University of Dundee, Small-Polar-MMV Screening Library” (2021)).

Results are given as percent effect.
The controls that fix the scale are not given in the record; negative values are as filed.
Compounds were drawn at random from those tested, without regard to their results.

TcHisRS: 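Enzyme assay of histidyl-tRNA synthetase; the read-out is not stated. Target: Histidine-tRNA ligase, Trypanosoma cruzi CL Brener (UniProt Q4DA54). Tested at 30 µM. The record gives no direction; compounds that gave an IC50 in retests scored well above the rest, so higher reads as stronger inhibition. Size under these conditions: about 69,000 compounds, about 31 of them at 50% or above in at least one test.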
PfKRS1: 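Enzyme assay of the cytosolic lysyl-tRNA synthetase in 384-well plates, read by luminescence. Target: Lysine-tRNA ligase, Plasmodium falciparum 3D7 (UniProt Q8IDJ8). Concentration: 30 µM. Direction is inferred from only a few compounds that gave an IC50; most scored high, so higher reads as stronger inhibition. Of about 69,000 compounds tested this way, about 49 (0.071%) reached 50% or more in at least one test.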

- CCCS(=O)(=O)N1C[C@@H]2CN(Cc3ccco3)CCO[C@@H]2C1 | TcHisRS: -1.093%; PfKRS1: -0.8718%
- CN(C)C(=O)N1CC2(CCNCC2)c2cc(Cl)ccc21 | TcHisRS: 3.941%; PfKRS1: 1.997%
- Cc1nc(NCc2nccn2C)cc(C2COCCN2)n1 (centres undefined) | TcHisRS: 9.848%; PfKRS1: 1.811%
- CC(C)CC(CCO)CNC(=O)N1CC(C)(C)C1(C)C (centres undefined) | TcHisRS: -3.03%; PfKRS1: 4.282%
- COCCN(C)Cc1nc(-c2cccc(F)c2F)oc1C | TcHisRS: 0.9901%; PfKRS1: -2.252%
- Cc1cccc2nc(CSCc3nnnn3C(C)C)cn12 | TcHisRS: 1.961%; PfKRS1: 6.715%
- COCCC(=O)N1CC2(CCN(Cc3ccncc3)CC2)C1 | TcHisRS: 7.143%; PfKRS1: -0.8007%
- CN(C)c1nc2c(c(N3CCc4ccccc4C3)n1)CCNC2 | TcHisRS: 19.15%; PfKRS1: 3.696%
- Cn1cc(CN2CCC3(CC(=O)N(c4ccc5c(c4)OCO5)C3)C2)cn1 (centres undefined) | TcHisRS: 3.825%; PfKRS1: 5.272%
- CN1CCN(Cc2cnc3n2CCN(Cc2cccs2)C3)CC1 | TcHisRS: 4.972%; PfKRS1: 3.202%
- COc1ccc(N2CCC(NC(=O)c3sccc3C)CC2)cc1 | TcHisRS: 7.035%; PfKRS1: -1.176%
- CCOCCOC(C)C(=O)NCc1cn2cc(Cl)ccc2n1 (centres undefined) | TcHisRS: 5%; PfKRS1: -3.728%
- CN(Cc1noc(C2CC2)n1)C1CCN(Cc2ccccc2C#N)C1 (centres undefined) | TcHisRS: 6.471%; PfKRS1: -0.547%
- N#Cc1ccc(C(=O)O)nc1/C=C/c1cccc(Cl)c1 | TcHisRS: -8.287%; PfKRS1: -6.607%
- COc1ccc(O[C@H]2COCCN(Cc3cccc4c3OCO4)C2)cc1 | TcHisRS: 4.478%; PfKRS1: 1.263%
- Cc1cc(-c2cnc(N(C)C)nc2C2CCCCN2C(=O)C2CC2)on1 (centres undefined) | TcHisRS: 3.448%; PfKRS1: 1.595%
- CC(O)CN(C)C(=O)Nc1ccn(-c2cccc(C(F)(F)F)c2)n1 (centres undefined) | TcHisRS: 1.961%; PfKRS1: 2.712%
- COCC1(CNc2cc(C(C)C)nc(N)n2)CC1 | TcHisRS: 7.317%; PfKRS1: 3.289%
- Cc1nc(C)n(CC2CCCN(CC(=O)Nc3c(C)n[nH]c3C)C2)n1 (centres undefined) | TcHisRS: 2.662%; PfKRS1: 2.316%
- Cc1ccn(-c2ccccc2NCc2cccnc2C)n1 | TcHisRS: -0.8264%; PfKRS1: 5.413%
- O=C(Cc1ccc(F)cc1)NCCNc1cc(N2CCCC2)ncn1 | TcHisRS: 0.9901%; PfKRS1: -8.785%
- CC(=O)N1CCN(c2ccnc3c(F)cc(Br)cc23)CC1 | TcHisRS: 10%; PfKRS1: 5.471%
- CC(C)(C)c1n[nH]c(C2CN(CC3CCC3)CCO2)n1 (centres undefined) | TcHisRS: 8.247%; PfKRS1: 2.222%
- CCOc1ccc(Br)cc1C1CCCCN1 (centres undefined) | TcHisRS: 1.22%; PfKRS1: 5.779%
- CS(=O)(=O)N1CCC2(CC1)CN(CC1CCOC1)c1ccccc12 (centres undefined) | TcHisRS: 17.99%; PfKRS1: 4.145%
- CCCC(=O)N(C)CC(=O)Nc1ccc(Br)cn1 | TcHisRS: 6.215%; PfKRS1: -0.6103%
- Cn1cc(-c2ncnc3c2CCN(CC2CCOC2)CC3)cn1 (centres undefined) | TcHisRS: 11.56%; PfKRS1: 3.271%
- CCn1nc(C)c(CNC(=O)c2nnc3ccc(Cl)cc3n2)c1C | TcHisRS: 6.696%; PfKRS1: 5.193%
- Cc1nc(N)sc1C(=O)N1Cc2ccccc2OC2(CCOCC2)C1 | TcHisRS: 1.493%; PfKRS1: -0.1306%
- CC(C)N1CCC(Cc2cc(-c3cccc(C(=O)O)c3)ncn2)CC1 | TcHisRS: 1.111%; PfKRS1: 0.092%
- CS(=O)(=O)c1cc(Cl)cnc1C1CCN(C(=O)C2CCOCC2)CC1 | TcHisRS: 0.3831%; PfKRS1: -0.7403%
- CSCc1cccc(S(=O)(=O)NCCCO)c1 | TcHisRS: 3.347%; PfKRS1: 3.349%
- Cc1cccc(-n2cc(CNc3ncnc4c3CCNCC4)cn2)c1 | TcHisRS: 20.79%; PfKRS1: -2.105%
- COCCN1CC(c2nc(CC3CCN(C)CC3)no2)CCC1=O (centres undefined) | TcHisRS: 5.587%; PfKRS1: 0.8675%
- CN(Cc1cccnc1)[C@@H]1CN(Cc2ccccn2)[C@@H]2CCCO[C@H]12 | TcHisRS: 8.571%; PfKRS1: -2.146%
- CS(=O)(=O)c1ccc(OCCNCc2c(F)cccc2F)cc1 | TcHisRS: 1.02%; PfKRS1: 6.717%
- Cc1csc(N2CCN(C(=O)c3ccc(C)s3)CC2)n1 | TcHisRS: -0.2907%; PfKRS1: 0.6564%

Once more, the final 3:

| SMILES | TcHisRS | PfKRS1 |
|---|---|---|
| `CN(Cc1cccnc1)[C@@H]1CN(Cc2ccccn2)[C@@H]2CCCO[C@H]12` | 8.571% | -2.146% |
| `CS(=O)(=O)c1ccc(OCCNCc2c(F)cccc2F)cc1` | 1.02% | 6.717% |
| `Cc1csc(N2CCN(C(=O)c3ccc(C)s3)CC2)n1` | -0.2907% | 0.6564% |